We go through 41 compounds from PubChem BioAssay AID2685 (National Center for Advancing Translational Sciences (NCATS), 2010).

A short description of the assay: qHTS Assay for Lipid Storage Modulators in Drosophila S3 Cells.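 For cell number change: cells counted by Cell Tracker Red CMTPX staining in the red channel.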 The following applies: BODIPY lipid droplet fluorescence, 18-24 h; for cell number change: measured here: cell count max response, cells fed with added oleic acid. In short, it runs like this:
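Drosophila S3 cells got compounds at several concentrations plus oleic acid (400 uM solution). Laser-scanning cytometry with 488 nm excitation read lipid droplets at 500-530 nm and cells at 575-640 nm. Percent activity was relative to 20 uM Triacsin C.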
In general terms: In qHTS, concentration-response curves come from the screen itself.

Where [1] appears, read: measured here: cell number channel AC50, cells fed with added oleic acid.
Where [2] appears, read: measured here: lipid fluorescence (Fed channel) AC50, cells fed with added oleic acid.

Usually AC50 stands for the concentration giving half of the maximal activity seen. A high value points to weaker potency.

Some of the results follow. Shown are side measurements of this screen, not its main read-out; they come without a call. Compounds called inactive in the main read-out are mostly missing here. Potencies come from curve fits of mixed quality, noted in brackets.

Consider `CCOc1cc(CN2CCN(CCc3ccccc3)C(CCO)C2)ccc1OC` (centres undefined), for which the cell number change is 31.5%. Moreover, the AC50 under setting [1] is 0.259 µM [rising, full curve, poor fit]. Consider `COc1ccc(/C(O)=C2/C(=O)C(=O)N(c3ccccn3)C2c2ccc(F)cc2)cc1` (centres undefined), for which the cell number change is -39.7%. Besides, the concentration at half-maximal activity (AC50) under setting [1] is 23.1 µM [falling, partial curve]. In addition, the AC50 under setting [2] is 4.11 µM [falling, partial curve]. As for `CN(Cc1ccccc1)C(=O)COc1ccc(Br)cc1Cl`, the cell number change is 22.4%. Moreover, the concentration at half-maximal activity (AC50) under setting [1] was 4.11 µM [rising, full curve, poor fit].

As for `COC(=O)c1cc(=O)n(-c2ccc(F)cc2)c(=Nc2ccc(F)cc2)s1`, the cell number change is -20.1%. The AC50 under setting [2] was 23.1 µM [falling, partial curve, poor fit]. With `CCc1cn(C2CC(O)C(CO)O2)c(=O)[nH]c1=O` (centres undefined), the cell number change was determined as 1.04%. Further, under setting [2], the AC50 was 4.11 µM [falling, full curve, poor fit]. In the case of `Cc1ccc(-c2n[nH]c(=O)c3ccccc23)cc1N`, the cell number change was found to be 24%. Moreover, the AC50 under setting [1] was 0.13 µM [rising, full curve, poor fit]. Besides, the concentration at half-maximal activity (AC50) under setting [2] is 0.366 µM [rising, full curve]. For the compound `Nn1c(SCC(=O)Nc2nccs2)nnc1-c1cccnc1`, the cell number change is -0.672%. In addition, under setting [2], the concentration at half-maximal activity (AC50) is 29.1 µM [rising, single point]. On to `CCSc1nnc(NC(=O)CCNS(=O)(=O)c2ccccc2F)s1`, for which the cell number change came out at 21%. For `Cc1ccc(S(=O)(=O)N2c3ccccc3-c3c(ssc3=S)C2(C)C)cc1`, the cell number change was -64.8%. The half-maximal activity concentration (AC50) under setting [1] was 16.4 µM [falling, single point]. Consider `Cc1ccc(OCC(=O)NC(=S)Nc2ccc(Br)cn2)cc1`, for which the cell number change is -11.6%. Moreover, the AC50 under setting [2] was 18.4 µM [falling, single point]. Consider `CCOC(=O)c1nnsc1-c1ccc(-c2snnc2C(=O)OCC)cc1`, for which the cell number change was -1.12%.

With `CCN(Cc1ccccc1)C(=S)Nc1cc(C(=O)OC)ccc1C(=O)OC`, the cell number change was -18.1%. Moreover, the half-maximal activity concentration (AC50) under setting [1] is 0.731 µM [falling, partial curve, poor fit]. For the same compound, the half-maximal activity concentration (AC50) under setting [2] is 0.231 µM [rising, full curve, poor fit]. With `O=C(O)C1Sc2[nH]c(=O)sc2C2c3cc(Cl)ccc3OC(=O)C12` (centres undefined), the cell number change was -12.4%. Further, the concentration at half-maximal activity (AC50) under setting [1] is 0.366 µM [rising, partial curve]. Besides, the half-maximal activity concentration (AC50) under setting [2] was 32.6 µM [rising, single point]. Turning to `CCN1C(=O)NC2C1N(S(C)(=O)=O)CCN2S(C)(=O)=O` (centres undefined), the cell number change is 0.209%. Further, the AC50 under setting [2] is 3.26 µM [rising, single point]. `O=C(Nc1c2c(nn1-c1ccc(F)cc1)CSC2)c1ccc(S(=O)(=O)N2CCOCC2)cc1`: the AC50 under setting [2] is 6.51 µM [rising, single point]. On the same count and under the same terms, the result for `CS(=O)(=O)N(CC(=O)NCc1cccnc1)Cc1ccc(Cl)cc1` reads 3.26 µM [rising, single point]; that for `CC(C)NC(=O)CN(CCc1ccccc1)S(C)(=O)=O`, 7.31 µM [falling, partial curve]. `CC(C)(C)NC(=O)c1cc2c(ccc3ccccc32)oc1=O`: the cell number change is -12%.

As for `O=C(Nc1ccc(Oc2ccccc2)nc1)C1CCCCN1Cc1ccc(O)cc1` (centres undefined), the cell number change was -24%. Moreover, the AC50 under setting [2] is 6.51 µM [rising, single point].

In the case of `CCOc1cc(N2CCOCC2)c(OCC)cc1NC(=O)Cn1[nH]c(=O)c2ccccc2c1=O`, the cell number change is -0.334%. Still for that read-out and setting: the result for `O=C(Nc1ccc(Cn2cccn2)cc1)c1ccc(COc2ccc(Br)cc2)cc1` reads 17.1%; that for `CCN(CC(=O)Nc1cc(Cl)ccc1C)C(=O)Cn1c(=O)cnc2ccccc21`, 16.9%.

Consider `O=C1c2ccccc2C(=O)N1CC#CCN1CCN(C2CCCCC2)CC1`, for which the cell number change was -75.2%. Moreover, the AC50 under setting [1] was 18.4 µM [falling, partial curve]. Besides, the AC50 under setting [2] was 20.6 µM [falling, single point]. On to `COc1cccc(NC(=O)N2CCN(S(C)(=O)=O)CC2)c1`, for which the cell number change was -24.3%. In addition, the AC50 under setting [2] is 23.1 µM [falling, single point]. As to `Cc1ccc(N2C(=O)CN(Cc3ccccc3)C2=S)cc1C`, the cell number change is -19%. Moreover, the AC50 under setting [2] was 6.51 µM [rising, single point]. On to `Cc1ccc(C)c(N(CC(=O)N2CCCC2)S(C)(=O)=O)c1`, for which the cell number change was -4.85%. Besides, the half-maximal activity concentration (AC50) under setting [2] was 0.231 µM [rising, full curve, poor fit]. As for `O=Cc1[nH]c2ccccc2c1N(C(=O)CCl)c1ccccc1`, the cell number change was -13.1%. In addition, the half-maximal activity concentration (AC50) under setting [2] is 20.6 µM [falling, single point].

For the compound `COc1ccccc1-c1noc(CCC(=O)NC2CCCC2)n1`, the cell number change worked out at 4.91%. The AC50 under setting [2] is 23.1 µM [rising, single point]. Turning to `COc1ccc(C2CC(c3ccccc3OC(C)=O)=NN2C(C)=O)cc1` (centres undefined), the cell number change was 0.76%. In the case of `Cc1ccc(OCC(=O)Nc2ccc(S(=O)(=O)N3CCOCC3)cc2)c(Br)c1`, under setting [2], the AC50 is 1.58 µM [falling, partial curve]. In the case of `S=C(Nc1ccc(Cl)cc1)Nc1cccc2cnccc12`, the cell number change amounted to 11.7%. Further, under setting [2], the AC50 was 5.8 µM [rising, partial curve]. For `O=C(c1ccco1)N1c2ccccc2Sc2ccccc21`, the AC50 under setting [2] was 0.00517 µM [falling, full curve, poor fit]. As to `Cc1cc(NC(=O)CSC2=NS(=O)(=O)c3ccccc3N2)no1`, the cell number change was -6.73%. On to `CC1CN(S(=O)(=O)c2cccc(C(=O)Nc3cc(Cl)ccc3N3CCOCC3)c2)CC(C)O1` (centres undefined), for which the cell number change amounted to 4.45%. Further, under setting [1], the concentration at half-maximal activity (AC50) was 0.731 µM [rising, single point]. As to `Cc1ccnc(NC(=O)CCCNC(=O)c2ccc(Cl)cc2)c1`, the cell number change stood at 22.8%. For the same compound, under setting [2], the AC50 was 7.31 µM [rising, partial curve]. With `O=c1cc(N2CCCCC2)nc2n1CCCS2`, the cell number change was determined as 5.5%. Consider `COc1ccc(S(=O)(=O)N2CCCC(C(=O)O)C2)cc1` (centres undefined), for which the cell number change amounted to 19.4%.

Regarding `CC(Oc1cccc(F)c1)C(=O)Nc1ccc(N2CCOCC2)cc1` (centres undefined), the cell number change is 25.6%. The AC50 under setting [1] is 4.11 µM [rising, full curve, poor fit]. The AC50 under setting [2] was 4.11 µM [rising, full curve, poor fit].

As for `Cc1ccc2oc(=O)cc(CN3CCOCC3)c2c1`, the cell number change stood at 18.4%. Further, under setting [2], the AC50 is 13 µM [rising, single point]. On to `CCC(=O)N1CCN(c2nc3ccc(Br)cc3s2)CC1`, for which the cell number change was 41.2%. Besides, the half-maximal activity concentration (AC50) under setting [1] is 29.1 µM [rising, single point]. For the same compound, the concentration at half-maximal activity (AC50) under setting [2] was 29.1 µM [rising, single point]. For the compound `CC(=O)c1c(C(C)=O)c(C)n(Cc2ccc3c(c2)OCO3)c1C`, the cell number change was -43.1%. Further, the half-maximal activity concentration (AC50) under setting [1] was 20.6 µM [falling, partial curve].
